Measured values from the supplement of paper PMC3334620.
Over roughly 33,000 sequences, “E-score (-0.5 to 0.5)” has its median near -0.0034; the highest 2% begin near 0.25. This is one part of the list.

target: T1, Yap3 (UniProt P38749); assay: PBM E-score (8-mer binding enrichment) (E-score (-0.5 to 0.5)); higher = stronger / more preferred TF binding; conditions: protein concentration: 100 nM; construct: GST-full length
T1 sequence: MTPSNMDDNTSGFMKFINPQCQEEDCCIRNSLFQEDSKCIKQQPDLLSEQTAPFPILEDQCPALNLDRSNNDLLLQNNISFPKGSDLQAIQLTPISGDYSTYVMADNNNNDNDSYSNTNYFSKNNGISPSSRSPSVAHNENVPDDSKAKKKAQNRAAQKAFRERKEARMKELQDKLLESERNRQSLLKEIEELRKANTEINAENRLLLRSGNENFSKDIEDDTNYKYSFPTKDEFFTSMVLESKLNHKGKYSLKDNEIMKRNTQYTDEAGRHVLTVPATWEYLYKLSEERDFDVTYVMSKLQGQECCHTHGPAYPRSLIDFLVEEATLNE
Description: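 Universal 'all 10-mer' protein binding microarrays (Agilent AMADID 015681) probed with GST-tagged S. cerevisiae TFs (full-length or DBD) made by in vitro transcription/translation (PURExpress), about 100-200 nM. Bound TF was detected with fluorescent anti-GST. Each ungapped 8-mer (which stands for itself and its reverse complement) is scored by the PBM enrichment score (E-score), a modified Wilcoxon-Mann-Whitney statistic from -0.5 to +0.5, computed with the Universal PBM Analysis Suite. Scale: above 0.35 generally sequence-specific binding.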

Row | Sequence | PBM E-score
1 | AATCATGT | 0.152
2 | ATATTTGA | 0.149
3 | ATGCCTTA | -0.0718
4 | AGTCACCA | -0.105
5 | AATGGCAG | -0.0161
6 | AGGTGACA | 0.097
7 | ACATAACA | 0.285
8 | CTAAGCTC | -0.136
9 | ACGGCCCT | -0.149
10 | ATGGTGCG | -0.17
11 | CACTTAAG | 0.115
12 | GAGTTTGC | -0.0658
13 | GCACGCCC | -0.168
14 | GCCCATGA | -0.0132
15 | ACTTAAGT | 0.193
16 | ACAGAGCG | -0.216
17 | ATTGTGCG | 0.0137
18 | TCTGGACA | -0.0238
19 | ACTGTCTC | 0.0475
20 | CATGAGTA | 0.0202
21 | AGCTTCGA | -0.149
22 | AGGATTCG | -0.00903
23 | CCCGTCTA | -0.0601
24 | ACACATCA | -0.067
25 | ACAGACCG | -0.0661

Row | Sequence | PBM E-score
26 | GAGGGGAC | -0.162
27 | CATTACCG | 0.0851
28 | CGATTAAC | 0.0957
29 | CCATGGCA | 0.0196
30 | TAGGCGCA | 0.0286
31 | CCGCTAAC | -0.0268
32 | GAAACAGC | -0.00127
33 | GCGGAGTA | -0.0538
34 | ACCCGGGA | -0.16
35 | CACAATCG | 0.00252
36 | CCCTGATC | -0.208
37 | CCCATCAC | -0.0869
38 | CGAGAAGC | 0.0526
39 | CTGTCATA | 0.0934
40 | ACCGGTCG | -0.23
41 | AATGGGCC | -0.201
42 | ATCACAGC | 0.116
43 | CCTGCTAC | 0.0701
44 | ACTCCGCA | -0.161
45 | ACAGAACA | 0.135
46 | CCGGGTGC | -0.249
47 | CAAATGTA | 0.245
48 | CTATCTTA | 0.126
49 | GCTAAATA | 0.1
50 | CTCAACAG | 0.0192

Row | Sequence | PBM E-score
51 | CAGCGGAA | 0.0813
52 | CAATATCA | 0.167
53 | GTCAGAAC | -0.113
54 | AGGTTACT | 0.0819
55 | AATCACAC | 0.103
56 | GAAGACGC | -0.0463
57 | CACCCCGG | -0.397
58 | GACGATTA | 0.0765
59 | CCGACCCG | -0.0299
60 | GGAGTTAC | 0.0686
61 | AAATCATC | 0.107
62 | CCTGTAAC | -0.0578
63 | GCCATAGC | -0.118
64 | AGACTCTG | -0.108
65 | AAAAATGT | 0.106
66 | ACTATAAT | 0.186
67 | CACTATGA | 0.0176
68 | CCCAACAC | -0.087
69 | ACGTTGCG | 0.0792
70 | CCACAAAA | 0.112
71 | AGGAAATC | 0.127
72 | CTGCGACC | -0.191
73 | AACGCCGA | 0.0374
74 | GACGGAAC | 0.00075
75 | TTATCCAA | 0.17

Some values from the results shown.
PBM E-score, AACGCCGA is entered as 0.0374
PBM E-score, CCCAACAC is entered as -0.087

Going on with the list.

Row | Sequence | PBM E-score
76 | AGGTCTGA | -0.0137
77 | AGCAGTGG | -0.0962
78 | ACTCGAGG | -0.00572
79 | AGAAAAAT | 0.141
80 | CCTTGCCG | -0.102
81 | GACAGCGC | -0.0413
82 | AGCGGAAC | -0.0776
83 | ATAGCGGA | -0.065
84 | GGACAATA | 0.177
85 | CTAGCTTA | 0.166
86 | CACGTGCC | -0.0149
87 | AGTTAGAG | -0.0388
88 | CTGTTTCC | -0.043
89 | CCAAGCAA | 0.0643
90 | AGAACAAG | 0.205
91 | AATGATCC | -0.068
92 | AAGAGGCA | -0.173
93 | AAGTAGCT | -0.076
94 | GTTGTATA | 0.244
95 | ACGTGTGC | -0.113
96 | AAAGTCGG | -0.031
97 | GTTAGTGA | 0.0844
98 | AGAATTGA | 0.0737
99 | GCCTTAAA | 0.0802
100 | ACATGTGG | 0.202

Row | Sequence | PBM E-score
101 | AAGTTGGA | 0.0831
102 | CGGAAGAC | -0.00677
103 | CTTTAGCA | -0.0363
104 | ACCCATGG | -0.219
105 | CGATATTA | 0.358
106 | GCAGAAAA | 0.162
107 | CCATGAGG | -0.0244
108 | CGGTTTAA | 0.0585
109 | CGTTAGGA | 0.108
110 | CATCAGAC | -0.133
111 | CACTATTA | 0.0335
112 | ACGCCCAT | 0.0125
113 | TCATACGA | 0.0882
114 | CTTTCATC | 0.0299
115 | GAGCTGAC | 0.0104
116 | CGCGGCCC | -0.0882
117 | GTGGTAAA | -0.0974
118 | GATTCTGC | 0.00403
119 | ACCCTTCC | -0.155
120 | CAGATTCA | -0.0752
121 | ATTGAAAA | 0.266
122 | GCTAATTA | 0.279
123 | ATCCCGAT | 0.14
124 | ATCAAACG | -0.00902
125 | GCGATCGA | 0.21

Row | Sequence | PBM E-score
126 | ACTTCGGC | -0.0242
127 | GTAGAGAA | 0.0971
128 | AGCTCCCA | -0.177
129 | ATTACTGC | 0.254
130 | CACGGTCC | -0.314
131 | CCACTTCA | -0.0512
132 | ACCGTGCA | 0.0374
133 | AAAAACTC | 0.072
134 | CCAGAATA | 0.246
135 | AACATCTA | -0.0506
136 | CCAACTAA | 0.0685
137 | CTTATACC | 0.162
138 | AGTCTAAA | 0.0798
139 | CCAGAAAC | 0.0139
140 | ACCAACTC | -0.0673
141 | ACGCCAGT | -0.155
142 | GTTTCGTA | 0.0847
143 | GGGGCCCC | -0.149
144 | CTTCCGAC | -0.131
145 | ATTATAAT | 0.319
146 | CTTGTGGC | -0.132
147 | ACAATCAG | 0.105
148 | CACGGCAC | -0.095
149 | GGGTCTTA | -0.141
150 | GTACGTTA | 0.256

Row | Sequence | PBM E-score
151 | ACCTCCGT | -0.0159
152 | CACTTAAC | -0.00843
153 | CAGTAGGC | -0.0809
154 | AACCCAAG | 0.0426
155 | CGGGGCGA | -0.00531
156 | AGTACGAT | 0.155
157 | ATCAACTC | 0.0249
158 | CTCGAGAC | 0.124
159 | GTTATATA | 0.224
160 | CCGCGCGA | 0.0991
161 | TGTACGAA | 0.111
162 | AAGTTGCA | 0.0331
163 | GAAGCAAA | 0.0129
164 | AAGCGGCA | 0.0177
165 | ATCCACAA | 0.0715
166 | GCAGGAGC | -0.214
167 | CACGTCGC | -0.13
168 | ATTCCTTC | 0.161
169 | GAGATATA | 0.0765
170 | CGTTGTGC | -0.0529
171 | AAGGCGAC | -0.2
172 | CTATCGGC | -0.0454

3 entries picked at random from those above, as already listed:
Row | Sequence | PBM E-score
163 | GAAGCAAA | 0.0129
156 | AGTACGAT | 0.155
164 | AAGCGGCA | 0.0177
